# Article PMC7139656, “The Landscape of the Anti-Kinase Activity of the IDH1 Inhibitors” (Cancers, 2020)
# Tests used:
# Assay in all cases: Cytotoxicity / antiproliferative activity, MTS test
# Format in all cases: cell-based
# HCT 116 p53+/+ = conditions: Homo sapiens, 72-h incubation
# From the text: (§1) The human colon carcinoma cell line HCT 116 wild type (p53^+/+) and the human breast carcinoma cell line MCF-7 were obtained from ATCC. The human colon cancer cell line HCT 116, which has a p53 deletion (p53^-/-), was kindly provided by prof. M. Rusin from the Maria Sklodowska-Curie Memorial Cancer Centre and Institute of Oncology in Gliwice, Poland. The glioblastoma cell line U-251 was kindly provided by prof. G. Kramer-Marek from The Institute of Cancer Research in London, United Kingdom. The pancreatic cell line PANC-1 and the human chronic myelogenous leukemia cell line K562 were purchased from Sigma-Aldrich. The adherent cell lines were cultured in Dulbecco’s modified Eagle’s medium (DMEM) containing 12% heat-inactivated fetal bovine serum (all from Sigma-Aldrich) with a mix of two standard antibiotics: 1% v/v of penicillin and streptomycin (Gibco) in 75 cm^2 flasks (Nunc). The suspension cell line K562 was cultured in an RPMI-1640 medium (Sigma-Aldrich), which had been supplemented with 10% heat-inactivated foetal bovine serum and the antibiotics. All of these cell lines were grown under standard conditions at 37 °C in a 5% CO2 humidified atmosphere. Prior to beginning the experiments, all of the cell lines were subjected to routine mycoplasma testing with specific Mycoplasma primers using the PCR technique.
# (§2) The exponentially growing cells for all of the cell lines were seeded in 96-well plates (Nunc) at a density of 5000 cells/well and incubated at 37 °C for 24 h. The assay was performed following a 72-h incubation with the various concentrations of the compounds that were being tested. Then, 20 µL of CellTiter 96®AQueous One Solution-MTS (Promega) solution was added to each well (with 100 µL DMEM without phenol red) and incubated for 1 h at 37 °C. The optical densities of the samples were analyzed at 490 nm using a multi-plate reader (Synergy 4, BioTek). The results are expressed as the percentage of the control and were calculated as the inhibitory concentration (IC50) values using GraphPad Prism 7. Each individual compound was tested in triplicate in a single experiment with each experiment being repeated five times.
# HCT 116 p53-/- = conditions: Homo sapiens, 72-h incubation
# From the text: as §1, §2
# K562 = conditions: Homo sapiens, 72-h incubation
# From the text: as §1, §2
# MCF-7 = conditions: Homo sapiens, MCF7, 72-h incubation
# From the text: as §1, §2
# PANC-1 = conditions: Homo sapiens, 72-h incubation
# From the text: as §1, §2
# U-251 = conditions: Homo sapiens, 72-h incubation
# From the text: as §1, §2
structure (smiles),measurement,setting,value
"Cc1ccc(NC(=O)c2ccc(CN3CCN(C)CC3)cc2)cc1Nc1nccc(-c2cccnc2)n1 [Imatinib, imatinib, reference compound]",IC50,HCT 116 p53+/+,> 30 µM
same,IC50,HCT 116 p53-/-,> 30 µM
same,IC50,K562,0.13 ± 0.03 µM
same,IC50,MCF-7,> 30 µM
same,IC50,PANC-1,> 30 µM
same,IC50,U-251,> 30 µM
